Results as given in patent US20090239929A1, “N-Pyrrolidin-3-YL-Amide Derivatives As Serotonin and Noradrenalin Re-Uptake Inhibitors” (priority 2004, published 2009).
Some of these results come from one statement about several compounds together.

Biological target: human serotonin and noradrenaline transporters (SERT and NET)
Assay: SPA binding, summary statement covering NET and/or SERT
Conditions: bound holds for at least one of the two transporters; read-out: NRI Ki and/or SRI Ki

Row | Structure (SMILES) | Ki [µM]
1 | O=C(c1ccc(Cl)cc1Cl)N(CCC(F)(F)F)[C@H]1CCNC1 [2,4-dichloro-N-[(3S)-pyrrolidin-3-yl]-N-(3,3,3-trifluoropropyl)benzamide] | < 0.2
2 | O=C(c1ccccc1C(F)(F)F)N(C1CC2CCC1C2)[C@H]1CCNC1 (stereo partly drawn) [Example 3, N-Bicyclo[2.2.1]hept-2-yl-2-(trifluoromethyl)N-[(3S)pyrrolidin-3-yl]benzamide] | < 0.2
3 | O=C(c1ccccc1Cl)N(C1CC2CCC1C2)[C@H]1CCNC1 (stereo partly drawn) [Example 4, N-Bicyclo[2.2.1]hept-2-yl-2-chloro-N-[(3S)-pyrrolidin-3-yl]benzamide] | < 0.2
4 | O=C(c1cccc(Cl)c1Cl)N([C@H]1C[C@H]2CC[C@H]2C1)[C@H]1CCNC1 [Example 1, N-(1R,3r,5 S)-Bicyclo[3.2.0]hept-3-yl-2,3-dichloro-N-[(3S)-pyrrolidin-3-yl]benzamide] | < 0.2
5 | O=C(c1ccccc1OC(F)(F)F)N(CCC(F)(F)F)[C@H]1CCNC1 [N-[(3S)pyrrolidin-3-yl]-2-(trifluoromethoxy)-N-(3,3,3-trifluoropropyl)benzamide] | < 0.2
6 | O=C(c1cccc(Cl)c1Cl)N(CC(F)(F)F)[C@H]1CCNC1 [2,3-dichloro-N-[(3S)-pyrrolidin-3-yl]-N-(2,2,2-trifluoroethyl)benzamide] | < 0.2
7 | O=C(c1ccc(Cl)c(Cl)c1)N(CCC(F)(F)F)[C@H]1CCNC1 [3,4-dichloro-N-[(3S)-pyrrolidin-3-yl]-N-(3,3,3-trifluoropropyl)benzamide] | < 0.2
8 | COc1cc(Cl)ccc1C(=O)N(C1CC2CCC1C2)[C@H]1CCNC1 (stereo partly drawn) [Example 2, N-Bicyclo[2.2.1]hept-2-yl-4-chloro-2-methoxy-N-[(3S)-pyrrolidin-3-yl]benzamide] | < 0.2
